# Measured values taken from the supplement of paper PMC8728848.
# The other results are listed elsewhere or left out.
# B1: SAG1 (Toxoplasma gondii), P13664 (protein)
# chain: MSVSLHHFIISSGFLTSMFPKAVRRAVTAGVFAAPTLMSFLRCGVMASDPPLVANQVVTCPDKKSTAAVILTPTENHFTLKCPKTALTEPPTLAYSPNRQICPAGTTSSCTSKAVTLSSLIPEAEDSWWTGDSASLDTAGIKLTVPIEKFPVTTQTFVVGCIKGDDAQSCMVTVTVQARASSVVNNVARCSYGADSTLGPVKLSAEGPTTMTLVCGKDGVKVPQDNNQYCSGTTLTGCNEKSFKDILPKLTENPWQGNASSDKGATLTIKKEAFPAESKSVIIGCTGGSPEKHHCTVKLEFAGAAGSAKSAAGTASHVSIFAMVIGLIGSIAACVA
# Experiments:
# Assay in all cases: glycan array binding signal (z-score within array); higher = stronger binding
# Conditions in all cases: glycan notation: IUPAC condensed, linker removed
# Fuc(a1-2)Gal = molecular target: Fuc(a1-2)Gal
# Summary of the method: (§1)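 The Consortium for Functional Glycomics database supplied 3228 glycan arrays, of which those lacking an available protein sequence were dropped. The binding signal, a within-array Z-score, was averaged across arrays of the same protein sequence and across linkers. Negative scores can be read as non-binding.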
# Fuc(a1-2)Gal(b1-3)GalNAc = molecular target: Fuc(a1-2)Gal(b1-3)GalNAc
# Summary of the method: as §1
# [1] = molecular target: Fuc(a1-2)Gal(b1-3)GalNAc(a1-3)[Fuc(a1-2)]Gal(b1-4)Glc
# Summary of the method: as §1
# [2] = molecular target: Fuc(a1-2)Gal(b1-3)GalNAc(a1-3)[Fuc(a1-2)]Gal(b1-4)GlcNAc
# Summary of the method: as §1
# [3] = molecular target: Fuc(a1-2)Gal(b1-3)GalNAc(b1-3)Gal
# Summary of the method: as §1
# [4] = molecular target: Fuc(a1-2)Gal(b1-3)GalNAc(b1-3)Gal(a1-4)Gal(b1-4)Glc
# Summary of the method: as §1
# [5] = molecular target: Fuc(a1-2)Gal(b1-3)GalNAc(b1-4)[Neu5Ac(a2-3)]Gal(b1-4)Glc
# Summary of the method: as §1
# Fuc(a1-2)Gal(b1-3)GlcNAc = molecular target: Fuc(a1-2)Gal(b1-3)GlcNAc
# Summary of the method: as §1
# [6] = molecular target: Fuc(a1-2)Gal(b1-3)GlcNAc(b1-2)Man(a1-3)[Fuc(a1-2)Gal(b1-3)GlcNAc(b1-2)Man(a1-6)]Man(b1-4)GlcNAc(b1-4)GlcNAc
# Summary of the method: as §1
# [7] = molecular target: Fuc(a1-2)Gal(b1-3)GlcNAc(b1-3)Gal(b1-4)Glc
# Summary of the method: as §1
# [8] = molecular target: Fuc(a1-2)Gal(b1-3)GlcNAc(b1-3)[Fuc(a1-3)[Gal(b1-4)]GlcNAc(b1-6)]Gal(b1-4)Glc
# Summary of the method: as §1
# [9] = molecular target: Fuc(a1-2)Gal(b1-3)[Fuc(a1-4)]GlcNAc
# Summary of the method: as §1
# [10] = molecular target: Fuc(a1-2)Gal(b1-3)[Fuc(a1-4)]GlcNAc(b1-2)Man(a1-3)[Fuc(a1-2)Gal(b1-3)[Fuc(a1-4)]GlcNAc(b1-2)Man(a1-6)]Man(b1-4)GlcNAc(b1-4)GlcNAc
# Summary of the method: as §1
# [11] = molecular target: Fuc(a1-2)Gal(b1-3)[Fuc(a1-4)]GlcNAc(b1-3)[Fuc(a1-3)[Gal(b1-4)]GlcNAc(b1-6)]Gal(b1-4)Glc
# Summary of the method: as §1
# [12] = molecular target: Fuc(a1-2)Gal(b1-3)[Fuc(a1-4)]GlcNAc(b1-3)[Gal(b1-4)GlcNAc(b1-6)]Gal(b1-4)Glc
# Summary of the method: as §1
# Fuc(a1-2)Gal(b1-4)Glc = molecular target: Fuc(a1-2)Gal(b1-4)Glc
# Summary of the method: as §1
# Fuc(a1-2)Gal(b1-4)Glc6S = molecular target: Fuc(a1-2)Gal(b1-4)Glc6S
# Summary of the method: as §1
# Fuc(a1-2)Gal(b1-4)GlcNAc = molecular target: Fuc(a1-2)Gal(b1-4)GlcNAc
# Summary of the method: as §1
# [13] = molecular target: Fuc(a1-2)Gal(b1-4)GlcNAc(b1-2)Man(a1-3)[Fuc(a1-2)Gal(b1-4)GlcNAc(b1-2)Man(a1-6)]Man(b1-4)GlcNAc(b1-4)GlcNAc
# Summary of the method: as §1
# [14] = molecular target: Fuc(a1-2)Gal(b1-4)GlcNAc(b1-3)Gal(b1-4)GlcNAc
# Summary of the method: as §1
# [15] = molecular target: Fuc(a1-2)Gal(b1-4)GlcNAc(b1-3)Gal(b1-4)GlcNAc(b1-3)Gal(b1-4)GlcNAc
# Summary of the method: as §1
# [16] = molecular target: Fuc(a1-2)Gal(b1-4)GlcNAc(b1-3)GalNAc
# Summary of the method: as §1
# [17] = molecular target: Fuc(a1-2)Gal(b1-4)GlcNAc6S
# Summary of the method: as §1
# [18] = molecular target: Fuc(a1-2)Gal(b1-4)[Fuc(a1-3)]GlcNAc
# Summary of the method: as §1
# [19] = molecular target: Fuc(a1-2)Gal(b1-4)[Fuc(a1-3)]GlcNAc(b1-2)Man(a1-3)[Fuc(a1-2)Gal(b1-4)[Fuc(a1-3)]GlcNAc(b1-2)Man(a1-6)]Man(b1-4)GlcNAc(b1-4)GlcNAc
# Summary of the method: as §1
# [20] = molecular target: Fuc(a1-2)Gal(b1-4)[Fuc(a1-3)]GlcNAc(b1-3)Gal(b1-4)[Fuc(a1-3)]GlcNAc
# Summary of the method: as §1
# [21] = molecular target: Fuc(a1-2)Gal(b1-4)[Fuc(a1-3)]GlcNAc(b1-3)Gal(b1-4)[Fuc(a1-3)]GlcNAc(b1-3)Gal(b1-4)[Fuc(a1-3)]GlcNAc
# Summary of the method: as §1
# Fuc(a1-2)Gal6S(b1-4)Glc = molecular target: Fuc(a1-2)Gal6S(b1-4)Glc
# Summary of the method: as §1
# [22] = molecular target: Fuc(a1-2)Gal6S(b1-4)Glc6S
# Summary of the method: as §1
# [23] = molecular target: Fuc(a1-2)Gal6S(b1-4)GlcNAc
# Summary of the method: as §1
binder,measurement,setting,value
B1,glycan array binding signal (z-score),Fuc(a1-2)Gal,-0.054
same,glycan array binding signal (z-score),Fuc(a1-2)Gal(b1-3)GalNAc,0.297
same,glycan array binding signal (z-score),[1],0.623
same,glycan array binding signal (z-score),[2],0.327
same,glycan array binding signal (z-score),[3],1.35
same,glycan array binding signal (z-score),[4],-0.127
same,glycan array binding signal (z-score),[5],-0.274
same,glycan array binding signal (z-score),Fuc(a1-2)Gal(b1-3)GlcNAc,0.025
same,glycan array binding signal (z-score),[6],0.14
same,glycan array binding signal (z-score),[7],-0.311
same,glycan array binding signal (z-score),[8],0.289
same,glycan array binding signal (z-score),[9],0.139
same,glycan array binding signal (z-score),[10],1.06
same,glycan array binding signal (z-score),[11],0.197
same,glycan array binding signal (z-score),[12],-0.631
same,glycan array binding signal (z-score),Fuc(a1-2)Gal(b1-4)Glc,-0.249
same,glycan array binding signal (z-score),Fuc(a1-2)Gal(b1-4)Glc6S,-0.308
same,glycan array binding signal (z-score),Fuc(a1-2)Gal(b1-4)GlcNAc,-0.142
same,glycan array binding signal (z-score),[13],-0.074
same,glycan array binding signal (z-score),[14],-0.45
same,glycan array binding signal (z-score),[15],0.433
same,glycan array binding signal (z-score),[16],-0.392
same,glycan array binding signal (z-score),[17],0.137
same,glycan array binding signal (z-score),[18],0.074
same,glycan array binding signal (z-score),[19],0.574
same,glycan array binding signal (z-score),[20],0.249
same,glycan array binding signal (z-score),[21],0.122
same,glycan array binding signal (z-score),Fuc(a1-2)Gal6S(b1-4)Glc,-0.355
same,glycan array binding signal (z-score),[22],1.45
same,glycan array binding signal (z-score),[23],1.12

# Rewritten with bars between the fields: part of the list above.
binder | measurement | setting | value
B1 | glycan array binding signal (z-score) | [5] | -0.274
same | glycan array binding signal (z-score) | Fuc(a1-2)Gal(b1-3)GlcNAc | 0.025
